According to paper PMC12579238:
No constants are given. Whether binding was seen depends on the method and setting. In cells and extracts the contact can be indirect. A yes stands for co-enrichment or nearness to the bait. Other partners may have been found.

T1: CLN7 (human (endogenous in SH-SY5Y)) (UniProt Q8NHS3)
T1 sequence: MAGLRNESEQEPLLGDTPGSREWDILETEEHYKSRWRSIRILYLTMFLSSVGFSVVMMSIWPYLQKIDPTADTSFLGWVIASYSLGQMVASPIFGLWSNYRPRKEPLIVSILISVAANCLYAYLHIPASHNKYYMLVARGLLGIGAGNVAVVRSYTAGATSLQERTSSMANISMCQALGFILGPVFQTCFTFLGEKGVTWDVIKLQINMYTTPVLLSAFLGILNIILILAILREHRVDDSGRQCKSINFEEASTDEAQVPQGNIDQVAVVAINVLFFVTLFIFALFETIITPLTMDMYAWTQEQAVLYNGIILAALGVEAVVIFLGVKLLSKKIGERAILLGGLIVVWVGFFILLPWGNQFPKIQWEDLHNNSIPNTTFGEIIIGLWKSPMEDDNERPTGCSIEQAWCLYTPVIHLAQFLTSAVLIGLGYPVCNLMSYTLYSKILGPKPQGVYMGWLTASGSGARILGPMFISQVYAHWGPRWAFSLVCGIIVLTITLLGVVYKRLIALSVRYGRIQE


Molecular target: T1, CLN7 (human (endogenous in SH-SY5Y))
Assay: affinity purification with mass spectrometry; endogenous CLN7 immunoprecipitated from 2.5 mg SH-SY5Y lysate with a polyclonal anti-CLN7 antibody raised against L9 (351-421aa, Proteintech) on G-sepharose beads; IgG as non-specific binding control; 4 independent replicates; cells under steady state culture conditions

| Binder | binding |
| --- | --- |
| LRCH3 (protein, UniProt Q96II8 1-777) MAAAGLVAVAAAAEYSGTVASGGNLPGVHCGPSSGAGPGFGPGSWSRSLDRALEEAAVTGVLSLSGRKLREFPRGAANHDLTDTTRADLSRNRLSEIPIEACHFVSLENLNLYQNCIRYIPEAILNLQALTFLNISRNQLSTLPVHLCNLPLKVLIASNNKLVSLPEEIGHLRHLMELDVSCNEIQTIPSQIGNLEALRDLNVRRNHLVHLPEELAELPLIRLDFSCNKITTIPVCYRNLRHLQTITLDNNPLQSPPAQICIKGKVHIFKYLNIQACKIAPDLPDYDRRPLGFGSCHEELYSSRPYGALDSGFNSVDSGDKRWSGNEPTDEFSDLPLRVAEITKEQRLRRESQYQENRGSLVVTNGGVEHDLDQIDYIDSCTAEEEEAEVRQPKGPDPDSLSSQFMAYIEQRRISHEGSPVKPVAIREFQKTEDMRRYLHQNRVPAEPSSLLSLSASHNQLSHTDLELHQRREQLVERTRREAQLAALQYEEEKIRTKQIQRDAVLDFVKQKASQSPQKQHPLLDGVDGECPFPSRRSQHTDDSALCMSLSGLNQVGCAATLPHSSAFTPLKSDDRPNALLSSPATETVHHSPAYSFPAAIQRNQPQRPESFLFRAGVRAETNKGHASPLPPSAAPTTDSTDSITGQNSRQREEELELIDQLRKHIEYRLKVSLPCDLGAALTDGVVLCHLANHVRPRSVPSIHVPSPAVPKLTMAKCRRNVENFLEACRKIGVPQEQLCLPLHILEEKGLSQVAVTVQALLELAPPKQQQHQLSAV | binds |
| LZTS2 (protein, UniProt Q9BRK4 1-669) MAIVQTLPVPLEPAPEAATAPQAPVMGSVSSLISGRPCPGGPAPPRHHGPPGPTFFRQQDGLLRGGYEAQEPLCPAVPPRKAVPVTSFTYINEDFRTESPPSPSSDVEDAREQRAHNAHLRGPPPKLIPVSGKLEKNMEKILIRPTAFKPVLPKPRGAPSLPSFMGPRATGLSGSQGSLTQLFGGPASSSSSSSSSSAADKPLAFSGWASGCPSGTLSDSGRNSLSSLPTYSTGGAEPTTSSPGGHLPSHGSGRGALPGPARGVPTGPSHSDSGRSSSSKSTGSLGGRVAGGLLGSGTRASPDSSSCGERSPPPPPPPPSDEALLHCVLEGKLRDREAELQQLRDSLDENEATMCQAYEERQRHWQREREALREDCAAQAQRAQRAQQLLQLQVFQLQQEKRQLQDDFAQLLQEREQLERRCATLEREQRELGPRLEETKWEVCQKSGEISLLKQQLKESQAELVQKGSELVALRVALREARATLRVSEGRARGLQEAARARELELEACSQELQRHRQEAEQLREKAGQLDAEAAGLREPPVPPATADPFLLAESDEAKVQRAAAGVGGSLRAQVERLRVELQRERRRGEEQRDSFEGERLAWQAEKEQVIRYQKQLQHNYIQMYRRNRQLEQELQQLSLELEARELADLGLAEQAPCICLEEITATEI | binds |
| MCM6 (protein, UniProt Q14566 1-821) MDLAAAAEPGAGSQHLEVRDEVAEKCQKLFLDFLEEFQSSDGEIKYLQLAEELIRPERNTLVVSFVDLEQFNQQLSTTIQEEFYRVYPYLCRALKTFVKDRKEIPLAKDFYVAFQDLPTRHKIRELTSSRIGLLTRISGQVVRTHPVHPELVSGTFLCLDCQTVIRDVEQQFKYTQPNICRNPVCANRRRFLLDTNKSRFVDFQKVRIQETQAELPRGSIPRSLEVILRAEAVESAQAGDKCDFTGTLIVVPDVSKLSTPGARAETNSRVSGVDGYETEGIRGLRALGVRDLSYRLVFLACCVAPTNPRFGGKELRDEEQTAESIKNQMTVKEWEKVFEMSQDKNLYHNLCTSLFPTIHGNDEVKRGVLLMLFGGVPKTTGEGTSLRGDINVCIVGDPSTAKSQFLKHVEEFSPRAVYTSGKASSAAGLTAAVVRDEESHEFVIEAGALMLADNGVCCIDEFDKMDVRDQVAIHEAMEQQTISITKAGVKATLNARTSILAAANPISGHYDRSKSLKQNINLSAPIMSRFDLFFILVDECNEVTDYAIARRIVDLHSRIEESIDRVYSLDDIRRYLLFARQFKPKISKESEDFIVEQYKHLRQRDGSGVTKSSWRITVRQLESMIRLSEAMARMHCCDEVQPKHVKEAFRLLNKSIIRVETPDVNLDQEEEIQMEVDEGAGGINGHADSPAPVNGINGYNEDINQESAPKASLRLGFSEYCRISNLIVLHLRKVEEEEDESALKRSELVNWYLKEIESEIDSEEELINKKRIIEKVIHRLTHYDHVLIELTQAGLKGSTEGSESYEEDPYLVVNPNYLLED | binds |

More lines, now with the values ahead:

| binding | Binder |
| --- | --- |
| binds | MYEF2 (protein, UniProt Q9P2K5 1-600) MADANKAEVPGATGGDSPHLQPAEPPGEPRREPHPAEAEKQQPQHSSSSNGVKMENDESAKEEKSDLKEKSTGSKKANRFHPYSKDKNSGAGEKKGPNRNRVFISNIPYDMKWQAIKDLMREKVGEVTYVELFKDAEGKSRGCGVVEFKDEEFVKKALETMNKYDLSGRPLNIKEDPDGENARRALQRTGGSFPGGHVPDMGSGLMNLPPSILNNPNIPPEVISNLQAGRLGSTIFVANLDFKVGWKKLKEVFSIAGTVKRADIKEDKDGKSRGMGTVTFEQAIEAVQAISMFNGQFLFDRPMHVKMDDKSVPHEEYRSHDGKTPQLPRGLGGIGMGLGPGGQPISASQLNIGGVMGNLGPGGMGMDGPGFGGMNRIGGGIGFGGLEAMNSMGGFGGVGRMGELYRGAMTSSMERDFGRGDIGINQGFGDSFGRLGSAMIGGFAGRIGSSNMGPVGSGISGGMGSMNSVTGGMGMGLDRMSSSFDRMGPGIGAILERSIDMDRGFLSGPMGSGMRERIGSKGNQIFVRNLPFDLTWQKLKEKFSQCGHVMFAEIKMENGKSKGCGTVRFDSPESAEKACRIMNGIKISGREIDVRLDRNA |
| binds | MYBBP1A (protein, UniProt Q9BQG0 1-1328) MESRDPAQPMSPGEATQSGARPADRYGLLKHSREFLDFFWDIAKPEQETRLAATEKLLEYLRGRPKGSEMKYALKRLITGLGVGRETARPCYSLALAQLLQSFEDLPLCSILQQIQEKYDLHQVKKAMLRPALFANLFGVLALFQSGRLVKDQEALMKSVKLLQALAQYQNHLQEQPRKALVDILSEVSKATLQEILPEVLKADLNIILSSPEQLELFLLAQQKVPSKLKKLVGSVNLFSDENVPRLVNVLKMAASSVKKDRKLPAIALDLLRLALKEDKFPRFWKEVVEQGLLKMQFWPASYLCFRLLGAALPLLTKEQLHLVMQGDVIRHYGEHVCTAKLPKQFKFAPEMDDYVGTFLEGCQDDPERQLAVLVAFSSVTNQGLPVTPTFWRVVRFLSPPALQGYVAWLRAMFLQPDLDSLVDFSTNNQKKAQDSSLHMPERAVFRLRKWIIFRLVSIVDSLHLEMEEALTEQVARFCLFHSFFVTKKPTSQIPETKHPFSFPLENQAREAVSSAFFSLLQTLSTQFKQAPGQTQGGQPWTYHLVQFADLLLNHSHNVTTVTPFTAQQRQAWDRMLQTLKELEAHSAEARAAAFQHLLLLVGIHLLKSPAESCDLLGDIQTCIRKSLGEKPRRSRTKTIDPQEPPWVEVLVEILLALLAQPSHLMRQVARSVFGHICSHLTPRALQLILDVLNPETSEDENDRVVVTDDSDERRLKGAEDKSEEGEDNRSSESEEESEGEESEEEERDGDVDQGFREQLMTVLQAGKALGGEDSENEEELGDEAMMALDQSLASLFAEQKLRIQARRDEKNKLQKEKALRRDFQIRVLDLVEVLVTKQPENALVLELLEPLLSIIRRSLRSSSSKQEQDLLHKTARIFTHHLCRARRYCHDLGERAGALHAQVERLVQQAGRQPDSPTALYHFNASLYLLRVLKGNTAEGCVHETQEKQKAGTDPSHMPTGPQAASCLDLNLVTRVYSTALSSFLTKRNSPLTVPMFLSLFSRHPVLCQSLLPILVQHITGPVRPRHQACLLLQKTLSMREVRSCFEDPEWKQLMGQVLAKVTENLRVLGEAQTKAQHQQALSSLELLNVLFRTCKHEKLTLDLTVLLGVLQGQQQSLQQGAHSTGSSRLHDLYWQAMKTLGVQRPKLEKKDAKEIPSATQSPISKKRKKKGFLPETKKRKKRKSEDGTPAEDGTPAATGGSQPPSMGRKKRNRTKAKVPAQANGTPTTKSPAPGAPTRSPSTPAKSPKLQKKNQKPSQVNGAPGSPTEPAGQKQHQKALPKKGVLGKSPLSALARKKARLSLVIRSPSLLQSGAKKKAQVRKAGKP |
| binds | MED23 (protein, UniProt Q9ULK4 1-1368) METQLQSIFEEVVKTEVIEEAFPGMFMDTPEDEKTKLISCLGAFRQFWGGLSQESHEQCIQWIVKFIHGQHSPKRISFLYDCLAMAVETGLLPPRLVCESLINSDTLEWERTQLWALTFKLVRKIIGGVDYKGVRDLLKVILEKILTIPNTVSSAVVQQLLAAREVIAYILERNACLLPAYFAVTEIRKLYPEGKLPHWLLGNLVSDFVDTFRPTARINSICGRCSLLPVVNNSGAICNSWKLDPATLRFPLKGLLPYDKDLFEPQTALLRYVLEQPYSRDMVCNMLGLNKQHKQRCPVLEDQLVDLVVYAMERSETEEKFDDGGTSQLLWQHLSSQLIFFVLFQFASFPHMVLSLHQKLAGRGLIKGRDHLMWVLLQFISGSIQKNALADFLPVMKLFDLLYPEKEYIPVPDINKPQSTHAFAMTCIWIHLNRKAQNDNSKLQIPIPHSLRLHHEFLQQSLRNKSLQMNDYKIALLCNAYSTNSECFTLPMGALVETIYGNGIMRIPLPGTNCMASGSITPLPMNLLDSLTVHAKMSLIHSIATRVIKLAHAKSSVALAPALVETYSRLLVYMEIESLGIKGFISQLLPTVFKSHAWGILHTLLEMFSYRMHHIQPHYRVQLLSHLHTLAAVAQTNQNQLHLCVESTALRLITALGSSEVQPQFTRFLSDPKTVLSAESEELNRALILTLARATHVTDFFTGSDSIQGTWCKDILQTIMSFTPHNWASHTLSCFPGPLQAFFKQNNVPQESRFNLKKNVEEEYRKWKSMSNENDIITHFSMQGSPPLFLCLLWKMLLETDHINQIGYRVLERIGARALVAHVRTFADFLVYEFSTSAGGQQLNKCIEILNDMVWKYNIVTLDRLILCLAMRSHEGNEAQVCYFIIQLLLLKPNDFRNRVSDFVKENSPEHWLQNDWHTKHMNYHKKYPEKLYFEGLAEQVDPPVQIQSPYLPIYFGNVCLRFLPVFDIVIHRFLELLPVSKSLETLLDHLGGLYKFHDRPVTYLYNTLHYYEMHLRDRAFLKRKLVHAIIGSLKDNRPQGWCLSDTYLKCAMNAREENPWVPDDTYYCRLIGRLVDTMAGKSPGPFPNCDWRFNEFPNPAAHALHVTCVELMALAVSGKEVGNALLNVVLKSQPLVPRENITAWMNAIGLIITALPEPYWIVLHDRIVSVISSPSLTSETEWVGYPFRLFDFTACHQSYSEMSCSYTLALAHAVWHHSSIGQLSLIPKFLTEVLLPIVKTEFQLLYVYHLVGPFLQRFQQERTRCMIEIGVAFYDMLLNVDQCSTHLNYMDPICDFLYHMKYMFTGDSVKEQVEKIICNLKPALKLRLRFITHISKMEPAAVPPQAMNSGSPAPQSNQVPVSLPVTQ |
